One substance from publication PMC7193419 can be followed below.

Protein sequences, listed by entry. Tags and fused reporters are not part of them.
UniProt Q13535: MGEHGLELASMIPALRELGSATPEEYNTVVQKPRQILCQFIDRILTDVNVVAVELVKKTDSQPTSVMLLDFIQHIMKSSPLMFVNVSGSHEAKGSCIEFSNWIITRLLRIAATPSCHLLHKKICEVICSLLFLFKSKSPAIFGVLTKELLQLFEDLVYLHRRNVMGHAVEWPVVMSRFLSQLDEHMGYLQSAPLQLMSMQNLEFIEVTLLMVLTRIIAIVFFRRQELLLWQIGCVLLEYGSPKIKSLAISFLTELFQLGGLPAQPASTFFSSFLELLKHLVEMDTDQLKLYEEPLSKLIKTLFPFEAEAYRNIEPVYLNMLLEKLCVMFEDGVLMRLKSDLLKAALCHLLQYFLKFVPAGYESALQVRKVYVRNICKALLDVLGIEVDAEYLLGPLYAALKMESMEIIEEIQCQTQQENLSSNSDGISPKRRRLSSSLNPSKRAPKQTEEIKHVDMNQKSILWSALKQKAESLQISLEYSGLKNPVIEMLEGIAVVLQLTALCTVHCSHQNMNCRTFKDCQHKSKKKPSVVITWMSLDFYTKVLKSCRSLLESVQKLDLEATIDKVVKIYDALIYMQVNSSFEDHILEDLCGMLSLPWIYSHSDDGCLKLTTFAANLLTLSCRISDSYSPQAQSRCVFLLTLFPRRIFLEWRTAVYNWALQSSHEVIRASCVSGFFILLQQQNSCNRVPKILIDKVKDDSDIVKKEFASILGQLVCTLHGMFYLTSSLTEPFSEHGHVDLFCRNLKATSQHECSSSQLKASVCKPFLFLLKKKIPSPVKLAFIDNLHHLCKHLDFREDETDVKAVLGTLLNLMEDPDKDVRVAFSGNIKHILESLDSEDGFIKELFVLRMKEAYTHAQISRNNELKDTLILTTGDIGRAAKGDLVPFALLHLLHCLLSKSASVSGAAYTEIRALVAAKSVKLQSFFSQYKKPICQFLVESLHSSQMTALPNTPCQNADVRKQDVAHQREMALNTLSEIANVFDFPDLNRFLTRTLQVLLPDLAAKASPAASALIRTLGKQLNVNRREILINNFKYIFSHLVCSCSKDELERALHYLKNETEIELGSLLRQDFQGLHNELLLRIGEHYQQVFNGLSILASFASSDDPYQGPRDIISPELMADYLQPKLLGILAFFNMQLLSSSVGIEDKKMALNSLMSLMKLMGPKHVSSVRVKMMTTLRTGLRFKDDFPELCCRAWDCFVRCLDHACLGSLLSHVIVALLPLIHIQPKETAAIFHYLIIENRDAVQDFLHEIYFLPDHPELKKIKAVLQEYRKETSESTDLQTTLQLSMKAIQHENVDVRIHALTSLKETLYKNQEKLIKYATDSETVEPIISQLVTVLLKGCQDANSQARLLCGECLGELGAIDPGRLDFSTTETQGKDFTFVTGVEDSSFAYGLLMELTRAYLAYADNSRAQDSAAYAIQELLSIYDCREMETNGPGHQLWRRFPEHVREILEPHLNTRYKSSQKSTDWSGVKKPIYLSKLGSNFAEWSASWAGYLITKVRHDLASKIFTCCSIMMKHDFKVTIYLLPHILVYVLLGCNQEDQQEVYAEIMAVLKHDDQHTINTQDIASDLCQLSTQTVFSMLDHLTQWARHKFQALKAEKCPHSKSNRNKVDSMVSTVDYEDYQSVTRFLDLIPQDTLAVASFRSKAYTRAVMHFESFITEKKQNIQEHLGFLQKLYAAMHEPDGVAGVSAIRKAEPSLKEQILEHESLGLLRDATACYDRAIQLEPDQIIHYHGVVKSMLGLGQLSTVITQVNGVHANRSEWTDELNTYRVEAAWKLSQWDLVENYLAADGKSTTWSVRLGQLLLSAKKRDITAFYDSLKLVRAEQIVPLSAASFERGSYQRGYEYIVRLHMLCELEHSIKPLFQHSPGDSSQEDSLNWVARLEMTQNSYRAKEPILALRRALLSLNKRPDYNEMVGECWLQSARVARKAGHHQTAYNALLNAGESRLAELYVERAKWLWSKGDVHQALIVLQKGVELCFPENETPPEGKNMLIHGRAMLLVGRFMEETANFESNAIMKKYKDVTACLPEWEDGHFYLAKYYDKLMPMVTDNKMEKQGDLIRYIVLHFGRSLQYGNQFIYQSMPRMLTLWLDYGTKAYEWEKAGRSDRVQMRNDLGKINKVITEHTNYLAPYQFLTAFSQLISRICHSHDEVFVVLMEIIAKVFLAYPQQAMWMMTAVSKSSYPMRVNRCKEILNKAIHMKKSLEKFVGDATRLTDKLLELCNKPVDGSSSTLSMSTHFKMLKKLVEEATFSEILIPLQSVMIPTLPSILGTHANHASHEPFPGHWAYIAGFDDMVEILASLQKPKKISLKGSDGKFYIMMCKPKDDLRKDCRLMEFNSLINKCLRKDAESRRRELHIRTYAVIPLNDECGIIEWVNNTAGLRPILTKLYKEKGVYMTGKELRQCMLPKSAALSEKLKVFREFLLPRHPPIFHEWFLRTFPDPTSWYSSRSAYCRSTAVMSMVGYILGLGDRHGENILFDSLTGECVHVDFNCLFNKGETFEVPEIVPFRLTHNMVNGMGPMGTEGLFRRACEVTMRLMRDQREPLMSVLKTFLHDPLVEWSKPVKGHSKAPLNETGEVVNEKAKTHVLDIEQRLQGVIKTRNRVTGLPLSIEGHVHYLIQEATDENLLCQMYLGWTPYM

Assay [1] deals with T1, CHK1, endogenous in HT29 and SW620 colorectal cancer cells (human (endogenous in HT29 and SW620)) (UniProt O14757).
T1 sequence: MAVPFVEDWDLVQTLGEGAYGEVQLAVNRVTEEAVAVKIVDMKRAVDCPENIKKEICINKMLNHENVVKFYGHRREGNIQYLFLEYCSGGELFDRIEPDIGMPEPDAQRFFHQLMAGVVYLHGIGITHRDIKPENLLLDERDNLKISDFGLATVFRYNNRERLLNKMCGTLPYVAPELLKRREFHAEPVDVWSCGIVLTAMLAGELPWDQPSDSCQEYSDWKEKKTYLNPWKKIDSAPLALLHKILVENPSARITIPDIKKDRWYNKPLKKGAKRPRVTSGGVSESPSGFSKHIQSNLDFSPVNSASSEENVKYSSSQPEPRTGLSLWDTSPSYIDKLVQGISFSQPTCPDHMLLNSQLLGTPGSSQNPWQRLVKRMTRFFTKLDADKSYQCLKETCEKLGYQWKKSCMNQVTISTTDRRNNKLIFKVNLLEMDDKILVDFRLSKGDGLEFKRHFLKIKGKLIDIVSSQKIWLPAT
Put plainly: co-IP; endogenous proteins; chromatin fraction of TRAF4-WT or TRAF4-knockout HT29 cells treated with 5-Fu for 24 h.

The target in assay [2] is T2, Flag-CHK1 wild type, expressed in HT29 cells (UniProt O14757).
T2 sequence: T1 sequence
Put plainly: co-IP; chromatin fraction of HT29 cells transfected with Flag-CHK1 or Flag-CHK1 K132R and treated with 5-Fu for 24 h.

Results are given in words; binding and its absence hold for the method and conditions named. In cells and extracts the contact can be indirect. Some entries that bind do so weakly or less than the wild type. For some assays here: Tags and fused reporters may be left off the sequences shown.

Consider “ATR (ATM- and Rad3-related), endogenous in HT29 cells (from UniProt Q13535 1-2644)”, for which the binding result in assay [1] and in assay [2] was “binds” in each case.
